## Screening data

Data taken from PubChem BioAssay AID504749, deposited by NCATS (2011).

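Malaria parasite (P. falciparum) lines kept in red blood cells; parasite DNA is measured by SYBR Green fluorescence after lysis, 72 h after compound addition. Each compound was titrated across a series from about 0.000037 to 29 µM. The number is the fitted AC50, the concentration giving a half-maximal change in signal; a lower value means higher potency, whether the curve shows a decrease or an increase. Calls follow the curve class and fit quality: every row here is inconclusive, covering signal-raising curves and weak, poorly fitted, partial or highest-dose-only inhibition curves.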

Values are in nM. All entries here are filed as inconclusive. These entries are mostly ones the record files as inconclusive; other results of the assay are not listed here. Potencies fitted to partial, single-point or poorly fitting curves are rough.

{"compound": "O=C(CCCN1CCC(O)(c2cccc(C(F)(F)F)c2)CC1)c1ccc(F)cc1", "condition": "FAB9", "potency (nM)": "10000", "remark": "inhibitor, partial curve, poor fit"}
{"compound": "O=C(CCCN1CCC(O)(c2cccc(C(F)(F)F)c2)CC1)c1ccc(F)cc1", "condition": "3D7", "potency (nM)": "14125", "remark": "inhibitor, partial curve, poor fit"}
{"compound": "O=C(CCCN1CCC(O)(c2cccc(C(F)(F)F)c2)CC1)c1ccc(F)cc1", "condition": "CP256", "potency (nM)": "17782", "remark": "inhibitor, single point"}
{"compound": "O=C(CCCN1CCC(O)(c2cccc(C(F)(F)F)c2)CC1)c1ccc(F)cc1", "condition": "CP268", "potency (nM)": "13459", "remark": "inhibitor, single point"}
{"compound": "O=C(CCCN1CCC(O)(c2cccc(C(F)(F)F)c2)CC1)c1ccc(F)cc1", "condition": "CP211", "potency (nM)": "10690", "remark": "inhibitor, single point"}
{"compound": "Clc1ccc(CO/N=C(\\Cn2ccnc2)c2ccc(Cl)cc2Cl)c(Cl)c1", "condition": "CP268", "potency (nM)": "19011", "remark": "inhibitor, single point"}
{"compound": "Clc1ccc(CO/N=C(\\Cn2ccnc2)c2ccc(Cl)cc2Cl)c(Cl)c1", "condition": "CP256", "potency (nM)": "11220", "remark": "inhibitor, single point"}
{"compound": "Clc1ccc(CO/N=C(\\Cn2ccnc2)c2ccc(Cl)cc2Cl)c(Cl)c1", "condition": "JCK", "potency (nM)": "17782", "remark": "inhibitor, single point"}
{"compound": "Clc1ccc(CO/N=C(\\Cn2ccnc2)c2ccc(Cl)cc2Cl)c(Cl)c1", "condition": "CP315", "potency (nM)": "19011", "remark": "inhibitor, single point"}
{"compound": "Clc1ccc(CO/N=C(\\Cn2ccnc2)c2ccc(Cl)cc2Cl)c(Cl)c1", "condition": "FAB9", "potency (nM)": "12589", "remark": "inhibitor, single point"}
{"compound": "Clc1ccc(CO/N=C(\\Cn2ccnc2)c2ccc(Cl)cc2Cl)c(Cl)c1", "condition": "CP211", "potency (nM)": "16944", "remark": "inhibitor, single point"}
{"compound": "Clc1ccc(CO/N=C(\\Cn2ccnc2)c2ccc(Cl)cc2Cl)c(Cl)c1", "condition": "CP329", "potency (nM)": "13459", "remark": "inhibitor, single point"}
{"compound": "Clc1ccc(CO/N=C(\\Cn2ccnc2)c2ccc(Cl)cc2Cl)c(Cl)c1", "condition": "CP266", "potency (nM)": "19011", "remark": "inhibitor, single point"}
{"compound": "Clc1ccc(CO/N=C(\\Cn2ccnc2)c2ccc(Cl)cc2Cl)c(Cl)c1", "condition": "CP201", "potency (nM)": "16944", "remark": "inhibitor, single point"}
{"compound": "Cc1ccc(-c2cc(C(F)(F)F)nn2-c2ccc(S(N)(=O)=O)cc2)cc1", "condition": "CP297", "potency (nM)": "15101", "remark": "inhibitor, partial curve"}
{"compound": "Cc1ccc(-c2cc(C(F)(F)F)nn2-c2ccc(S(N)(=O)=O)cc2)cc1", "condition": "CP252", "potency (nM)": "10000", "remark": "inhibitor, single point"}
{"compound": "Cc1ccc(-c2cc(C(F)(F)F)nn2-c2ccc(S(N)(=O)=O)cc2)cc1", "condition": "CP305", "potency (nM)": "15101", "remark": "inhibitor, single point"}
{"compound": "Cc1ccc(-c2cc(C(F)(F)F)nn2-c2ccc(S(N)(=O)=O)cc2)cc1", "condition": "CP291", "potency (nM)": "15101", "remark": "inhibitor, single point"}
{"compound": "Cc1ccc(-c2cc(C(F)(F)F)nn2-c2ccc(S(N)(=O)=O)cc2)cc1", "condition": "CP325", "potency (nM)": "15101", "remark": "inhibitor, single point"}
{"compound": "Cc1ccc(-c2cc(C(F)(F)F)nn2-c2ccc(S(N)(=O)=O)cc2)cc1", "condition": "CP191", "potency (nM)": "17782", "remark": "inhibitor, single point"}
{"compound": "Cc1ccc(-c2cc(C(F)(F)F)nn2-c2ccc(S(N)(=O)=O)cc2)cc1", "condition": "CP269", "potency (nM)": "15101", "remark": "inhibitor, single point"}
{"compound": "Cc1ccc(-c2cc(C(F)(F)F)nn2-c2ccc(S(N)(=O)=O)cc2)cc1", "condition": "CP265", "potency (nM)": "8912", "remark": "inhibitor, single point"}
{"compound": "Cc1ccc(-c2cc(C(F)(F)F)nn2-c2ccc(S(N)(=O)=O)cc2)cc1", "condition": "CP217", "potency (nM)": "11220", "remark": "inhibitor, single point"}
{"compound": "Cc1ccc(-c2cc(C(F)(F)F)nn2-c2ccc(S(N)(=O)=O)cc2)cc1", "condition": "CP315", "potency (nM)": "16944", "remark": "inhibitor, single point"}
{"compound": "Cc1ccc(-c2cc(C(F)(F)F)nn2-c2ccc(S(N)(=O)=O)cc2)cc1", "condition": "CP335", "potency (nM)": "11995", "remark": "inhibitor, single point"}
{"compound": "Cc1ccc(-c2cc(C(F)(F)F)nn2-c2ccc(S(N)(=O)=O)cc2)cc1", "condition": "CP329", "potency (nM)": "15101", "remark": "inhibitor, single point"}
{"compound": "Cc1ccc(-c2cc(C(F)(F)F)nn2-c2ccc(S(N)(=O)=O)cc2)cc1", "condition": "CP256", "potency (nM)": "10000", "remark": "inhibitor, single point"}
{"compound": "Cc1ccc(-c2cc(C(F)(F)F)nn2-c2ccc(S(N)(=O)=O)cc2)cc1", "condition": "CP237", "potency (nM)": "11220", "remark": "inhibitor, single point"}

3 of the entries, repeated:

compound	condition	potency (nM)	remark
Cc1ccc(-c2cc(C(F)(F)F)nn2-c2ccc(S(N)(=O)=O)cc2)cc1	CP265	8912	inhibitor, single point
Cc1ccc(-c2cc(C(F)(F)F)nn2-c2ccc(S(N)(=O)=O)cc2)cc1	CP329	15101	inhibitor, single point
Cc1ccc(-c2cc(C(F)(F)F)nn2-c2ccc(S(N)(=O)=O)cc2)cc1	CP256	10000	inhibitor, single point